# From PubChem BioAssay AID1259415 (National Center for Advancing Translational Sciences (NCATS), 2018)
# Among all 410,000 compounds or so, about 18,000 (4.4%) were called active. Inconclusive means that the source gave no clear call. Such entries were picked first, then a sample of the others. Rule as the data show it: active = activity change below about -60%; inconclusive = no clear call, values can overlap the other calls; inactive = above about -39%.
# Assay: qHTS Assay for inhibitors of the human cytomegalovirus (HCMV)
# Details: HFF cells, HCMV-luciferase reporter, 72 h; at 57.5 µM; stronger effect = lower value
# In short: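 Inhibition of viral replication was scored as loss of reporter luminescence in HFFs infected with HCMV-luciferase (MOI 1 PFU/cell) for 72 h; compounds tested at 2 doses, normalized to buffer and Salinomycin controls.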
# % is scaled to controls: 0 for no effect and ±100 for the full control effect.
row,SMILES,"activity change, negative = inhibition"
1,C=CCCN(C(C(=O)OC)C(C)C)S(=O)(=O)c1ccccc1Br (stereo not given),inconclusive: -47.5%
2,COc1ccc(-c2csc3ncnc(Nc4ccc(OC)c(OC)c4)c23)cc1,inconclusive: -48.2%
3,CCOc1ccc(CCNC(=O)c2ccc(Cn3c(=O)c4cccn4c4cccnc43)cc2)cc1,inconclusive: -54.3%
4,Cc1ccc(C(=O)NC(=S)Nc2ccc(N3CCN(C(=O)c4ccco4)CC3)cc2)cc1,inconclusive: -59.2%
5,COc1cccc(C(=O)c2sc(Nc3ccc(C)cc3C)c(S(=O)(=O)c3ccccc3)c2N)c1,inactive: 0.976%
6,O=C(Nc1ccc(F)cc1)C1CCCN(S(=O)(=O)c2cccc3nonc23)C1 (stereo not given),inconclusive: -43.4%
7,COc1ccc(OC)c(N(CC(=O)Nc2ccccc2F)S(=O)(=O)c2ccccc2)c1,inconclusive: -52.2%
8,CCc1nc2ccc(C(=O)NCCCn3ccnc3)cn2c1N(C)Cc1cc2ccccc2s1,inconclusive: -43.3%
9,Cc1ccc(C)c(Cn2c(=O)n(-c3ccc(CC(=O)NCc4ccco4)cc3)c(=O)c3sccc32)c1,inconclusive: -41.2%
10,CC(C(=O)N1CCCC1)N(C)CC(=O)Nc1cccc(F)c1 (stereo not given),inconclusive: -57.8%
11,COC(=O)C1CN(C(=O)COc2ccc(Cl)cc2C)c2ccccc2O1 (stereo not given),active: -61%
12,CC1=C(C(=O)N(C)C)CC(CC(=O)NC2CCCCC2)C(=O)N1CCCN1CCCC1=O (stereo not given),inactive: -19.1%
13,CCOC(=O)c1c(C)[nH]c(C)c1S(=O)(=O)NCCN1CCN(c2cc(Cl)ccc2C)CC1,active: -72.4%
14,CCOc1ccc(OCC)c(NC(=O)CN(c2ccc(C)cc2)S(=O)(=O)c2c(C)n[nH]c2C)c1,inconclusive: -58.2%
15,C=CCN(CC=C)C(=S)NC(=O)/C=C/c1ccc(OC)cc1,inconclusive: -58.9%
16,COc1ccc(C2CC(=O)c3c([nH]c(C(=O)OC4CCCC4)c3C)C2)cc1OC (stereo not given),inactive: -3.31%
17,Cc1cccc(N=Nc2c(C)c(C#N)c(O)[nH]c2=O)c1,inconclusive: -40.2%
18,Cc1cccc(OCCN2C(=O)c3ccccc3C2=O)c1,inconclusive: -48.3%
19,CC(=O)Nc1ccc(NC(=O)C(C)N(C)CC(=O)Nc2ccccc2Br)cc1 (stereo not given),inconclusive: -50.9%
20,Cc1ccc(-n2c(O)c(/C=N/NC(=O)C3COc4ccccc4O3)c3ccccc3c2=O)cc1 (stereo not given),active: -61.1%
21,O=C(Nc1cc(Br)ccc1O)c1cc(-c2ccco2)on1,inconclusive: -44.3%
22,CCCc1c(C)nc(N2CCN(c3ccccc3F)CC2)[nH]c1=O,inconclusive: -43.5%

row,SMILES,"activity change, negative = inhibition"
1,O=C(NCC(c1ccco1)N1CCCCC1)c1ccc(NS(=O)(=O)c2ccc(F)cc2)cc1 (stereo not given),inconclusive: -42.2%
2,CCc1ccc(NC(=O)c2c(Cl)nc(C)c(Cl)c2C)cc1,inconclusive: -50.7%
3,CN(Cc1ccccc1)c1oc(-c2ccco2)nc1C#N,inconclusive: -50.5%
4,Cc1ccc2nnn(Cc3cccc(C(C)(C)C)c3O)c2c1,inconclusive: -54.6%
5,C#Cc1ccc([C@@H]2C=C(C(=O)N3CCN(Cc4ccc5c(c4)OCO5)CC3)O[C@H](OCCCCO)C2)cc1,inactive: 9.26%
6,Nc1c(C(=O)N2CCOCC2)sc2nc3c(cc12)CCC3,inactive: 44%
7,CCOc1cccc(-c2nnc3sc(C4CCCCC4)nn23)c1,inconclusive: -59.9%
8,CC(C)c1ccc(NC(=O)c2cc(S(=O)(=O)N3CCCC3)c[nH]2)cc1,active: -77.4%
9,O=c1[nH]c(=S)n(C2CC2)c(O)c1/C=N/Nc1cccc2ccccc12,inactive: 13.3%
10,C/C(=N\Nc1ncc(Cl)cc1Cl)c1ccc(OC(F)F)cc1,inconclusive: -48.9%
11,Cc1cccc(C(=O)Nc2ccccc2SCC(=O)Nc2ccc(C)c(Cl)c2)c1,inactive: -15.7%
12,Cc1ccc2sc(N(CCCN(C)C)C(=O)c3ccc(S(=O)(=O)N(C)C4CCCCC4)cc3)nc2c1C,inactive: -35%
13,NC(=O)C1CC(=O)N(c2ccc(OCC(=O)N3CCCC3)cc2)C1 (stereo not given),inconclusive: 0%
14,CC(=O)OCCSc1c(-c2ccccc2)c2cc(Cl)ccc2[nH]c1=O,inconclusive: -51.9%
15,CC(C)(C)OC(=O)C[C@H]1C/C=C\C[C@H](CC(=O)N[C@H](CO)Cc2ccccc2)C(=O)N[C@H](Cc2ccccc2)COC1=O,inactive: 5.81%
16,c1ccc(-c2nnc3sc(-c4csc5c4CCCC5)nn23)cc1,inconclusive: -45.9%
17,COc1ccc(Nc2ccncc2[N+](=O)[O-])cc1,active: -71.2%
18,COC(=O)c1sccc1NC(=O)Nc1ccc(C)c(C)c1,inactive: 22.4%
19,CC(=O)Nc1ccc(S(=O)(=O)N2CCSC2c2ccc(Cl)cc2)cc1 (stereo not given),inconclusive: -53.3%
20,CN(C)CCCn1c(=O)n(Cc2ccccc2)c(=O)c2c3c(sc21)CCCCC3,inconclusive: -40.7%
21,COc1ccc(CCNC(=O)c2c(C)nc3ccccn23)cc1,inconclusive: -48.7%
22,COc1ccccc1NC(=O)Cn1cnc2c(oc3ccccc32)c1=O,inactive: 21.7%

# As a working copy, part of the list above:
row,SMILES,"activity change, negative = inhibition"
15,CC(C)(C)OC(=O)C[C@H]1C/C=C\C[C@H](CC(=O)N[C@H](CO)Cc2ccccc2)C(=O)N[C@H](Cc2ccccc2)COC1=O,inactive: 5.81%
16,c1ccc(-c2nnc3sc(-c4csc5c4CCCC5)nn23)cc1,inconclusive: -45.9%

# A second format for 2 compounds above:
row | SMILES | activity change, negative = inhibition
4 | Cc1ccc2nnn(Cc3cccc(C(C)(C)C)c3O)c2c1 | inconclusive: -54.6%
5 | C#Cc1ccc([C@@H]2C=C(C(=O)N3CCN(Cc4ccc5c(c4)OCO5)CC3)O[C@H](OCCCCO)C2)cc1 | inactive: 9.26%

# Remaining list, next part

row,SMILES,"activity change, negative = inhibition"
1,CCOC(=O)C1(CCCc2ccccc2)CCN(C(=O)C2=C(C)OCCO2)CC1,active: -68.8%
2,Cc1ccc(C(=O)COC(=O)CNS(=O)(=O)c2ccc(C)cc2)cc1,inconclusive: -43.6%
3,N#C/C(=C\c1ccc(O)c(O)c1)C(=O)Nc1ccccc1,inconclusive: -51.2%
4,COc1ccc(S(=O)(=O)N2CCCCC2)cc1NC(=O)C1CC(=O)N(Cc2ccco2)C1 (stereo not given),inactive: -16.7%
5,Cc1ccc(C(=O)Nc2ccc(C(=O)N/N=C/c3ccccn3)cc2)cc1,inactive: 36%
6,O=C(Cc1c[nH]c2ccccc12)N1CCc2ccccc21,inactive: 28.7%
7,CCn1ncc(C2=NOC(C(=O)Nc3cccc(C(C)=O)c3)C2)c1C (stereo not given),inconclusive: -44.8%
8,Cc1cccc(N2CCN(C(=O)CCS(=O)(=O)c3ccc4c(c3)NC(=O)CO4)CC2)c1C,inconclusive: -42.1%
9,CCc1noc(C)c1C(=O)N1CCCSC1=Nc1ccccc1OC,inconclusive: -48.8%
10,COc1ccc(C(=O)Nc2ccc(S(=O)(=O)N3CCCC3)cc2)cc1,inconclusive: -44.2%
11,Cc1ccc(Cl)cc1NC(=O)c1ccc(CSc2nnnn2C)cc1,active: -60.7%
12,COc1ccc(CNC(=O)C2CCN(C(=O)[C@@H](CC(C)C)NC(=O)OC(C)(C)C)CC2)cc1,inactive: -7.71%
13,Cc1cc2nn(-c3ccc(F)cc3)nc2cc1NC(=O)c1cc(Cl)ccc1Cl,inactive: 24.1%
14,COc1ccc(-c2noc(CCCCC(=O)N3CCN(c4cc(C)ccc4C)CC3)n2)cc1,active: -96.3%
15,COc1ccc([C@@]23Oc4cc(OC)cc(OC)c4[C@]2(O)[C@H](O)[C@H](C(=O)N(C)C)[C@H]3c2ccccc2)cc1,active: -98.1%
16,COc1ccc(OC)c(N(C(=O)c2ccco2)C(C(=O)NC2CCCC2)c2ccc(N3CCOCC3)cc2)c1 (stereo not given),inactive: 17.8%
17,Cc1ccc(CCNC(=O)CN2C(=O)COc3ccc(S(=O)(=O)N4CCC(C)CC4)cc32)cc1,inconclusive: 0%
18,Cc1ccc(-c2nnc(SCC(=O)NCCC(C)C)nc2-c2ccc(C)cc2)cc1,inconclusive: 0%
19,COC(=O)/C(=C/c1ccc(OC)cc1)NC(=O)c1ccco1,inconclusive: -49.1%
20,O=C(Nc1ccc2c(c1)CCC2)Nc1ccccc1F,inactive: 111%
21,O=C(NCC1CCCO1)c1cccc(Oc2ccc([N+](=O)[O-])cc2Cl)c1 (stereo not given),inconclusive: -56.7%
22,Cn1c(=O)n(C)c2cc(NS(=O)(=O)c3ccc4c(c3)CCCC4)ccc21,active: -107%

row,SMILES,"activity change, negative = inhibition"
1,O=C(c1cc(C2CC2)on1)N1CCCC(N2CCN(c3ccc(F)cc3)CC2)C1 (stereo not given),inconclusive: -47.5%
2,O=C(c1cccc(Br)c1)c1conc1C(=O)c1ccco1,inconclusive: -45.8%
3,CCCC1(C2CCCC2)NC(=O)NC1=O (stereo not given),inactive: -4.32%
4,COc1ccc(OC)c(-c2cc(C(=O)NCCCn3ccnc3)no2)c1,inconclusive: -41.4%
5,CC(OC(=O)c1cc(S(=O)(=O)N2CCOCC2)ccc1F)C(=O)NCc1ccc2c(c1)OCO2 (stereo not given),inactive: 9.61%
6,O=C1NC(=O)C(c2ccccc2[N+](=O)[O-])=C1Nc1ccc(O)c(Cl)c1,inconclusive: -57.3%
7,CCC[N+](CC#Cc1ccccc1)(CCC)CC(=O)OCC,inconclusive: -45.9%
8,O=C(Nc1ccc2c(c1)nc1n2CCOC1)c1ccccc1,inactive: 89.9%
9,CC(C)NC(=S)NN=C1CCC(c2ccccc2)CC1 (stereo not given),inconclusive: -57.2%
10,O=C(Nc1ccc(F)cc1)c1ccc(-n2cnnc2)cc1,inactive: -37.7%
11,Cc1ccc(NC(=O)CN2CCCC2c2cccn2C)cc1C (stereo not given),inconclusive: -40.5%
12,COc1cc(NC(=O)COc2ccc([N+](=O)[O-])cc2)ccc1NC(=O)c1ccco1,inactive: 33.7%
13,O=C(C1CCCN1S(=O)(=O)c1cccc2nsnc12)N1CCN(c2ccc(F)cc2)CC1 (stereo not given),active: -65.9%
14,C=CCn1c(=O)c2c(nc(Br)n2Cc2ccccc2Cl)n(C)c1=O,active: -73.1%
15,Cc1ccc(OC(=O)C2c3ccccc3Oc3ccccc32)cc1C,inactive: -27.6%
16,COC(=O)N/N=C/c1cccc(OCCSc2ccc(Cl)cc2)c1,inactive: -24.4%
17,CC(C)/C=N/Nc1nc2c(c(=O)n(C)c(=O)n2C)n1C,inconclusive: -49.9%
18,Cc1cc(C)c(N)c(C(=O)O)c1,inconclusive: -40.9%
19,Cc1ccc2n(n1)c(=O)c(Cc1ccccc1)c([O-])[n+]2-c1ccccc1,inactive: 24.8%
